Here are results for one molecule from patent US20120034231A1.

This experiment deals with cynomolgus IL12Rβ1 (cynomolgus). As to the kind of experiment: FACS on HEK293 and Jurkat cells expressing cyno IL12Rβ1.

Results are given in words; binding and its absence hold for the method and conditions named. Some binding calls cover weakened binding; strength is not graded here.

B1: MOR05286 Fab (Fab, V domains shown)
VH: QVQLKESGPALVKPTQTLTLTCTFSGFSLSTSGMGVSWIRQPPGKALEWLALIDWTDDKYYSTSLKTRLTISKDTSKNQVVLTMTNMDPVDTATYYCARTVGKGLYRVDNWGQGTLVTVSS
VL: DIELTQPPSVSVAPGQTARISCSGDNLGSKFAYWYQQKPGQAPVLVIYDDSKRPSGIPERFSGSNSGNTATLTISGTQAEDEADYYCQSWDSSSGNDVFGGGTKLTVLG
Take B1: the binding result is on record as “binds”.
